Laboratory results published in the supplement of paper PMC7666118.
This is one part of the list.

Protein sequences, listed by entry. Tags and fused reporters are not part of them. Lines headed by an entry give the natural chain unless they say otherwise; changes in a name come on top.
UniProt Q969Q5: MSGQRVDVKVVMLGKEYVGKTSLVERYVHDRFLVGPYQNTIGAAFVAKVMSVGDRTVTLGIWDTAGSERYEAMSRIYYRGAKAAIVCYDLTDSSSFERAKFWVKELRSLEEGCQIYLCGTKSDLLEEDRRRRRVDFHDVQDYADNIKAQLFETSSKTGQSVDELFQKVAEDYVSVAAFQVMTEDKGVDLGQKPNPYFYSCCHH
UniProt O75884: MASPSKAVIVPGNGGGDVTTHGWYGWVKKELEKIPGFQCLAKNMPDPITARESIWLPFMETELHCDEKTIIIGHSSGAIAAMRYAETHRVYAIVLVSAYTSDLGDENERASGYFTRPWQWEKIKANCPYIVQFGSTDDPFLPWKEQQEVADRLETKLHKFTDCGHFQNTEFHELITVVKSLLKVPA
UniProt Q06609, whole entry: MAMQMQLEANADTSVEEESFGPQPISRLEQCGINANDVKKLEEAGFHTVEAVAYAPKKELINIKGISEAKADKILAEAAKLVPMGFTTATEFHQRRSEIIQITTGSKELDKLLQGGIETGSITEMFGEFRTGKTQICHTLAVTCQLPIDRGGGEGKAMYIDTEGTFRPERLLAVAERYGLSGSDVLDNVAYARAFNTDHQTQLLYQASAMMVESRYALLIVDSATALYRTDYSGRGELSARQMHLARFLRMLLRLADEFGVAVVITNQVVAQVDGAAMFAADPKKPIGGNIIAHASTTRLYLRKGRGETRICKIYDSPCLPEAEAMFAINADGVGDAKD
UniProt Q99708: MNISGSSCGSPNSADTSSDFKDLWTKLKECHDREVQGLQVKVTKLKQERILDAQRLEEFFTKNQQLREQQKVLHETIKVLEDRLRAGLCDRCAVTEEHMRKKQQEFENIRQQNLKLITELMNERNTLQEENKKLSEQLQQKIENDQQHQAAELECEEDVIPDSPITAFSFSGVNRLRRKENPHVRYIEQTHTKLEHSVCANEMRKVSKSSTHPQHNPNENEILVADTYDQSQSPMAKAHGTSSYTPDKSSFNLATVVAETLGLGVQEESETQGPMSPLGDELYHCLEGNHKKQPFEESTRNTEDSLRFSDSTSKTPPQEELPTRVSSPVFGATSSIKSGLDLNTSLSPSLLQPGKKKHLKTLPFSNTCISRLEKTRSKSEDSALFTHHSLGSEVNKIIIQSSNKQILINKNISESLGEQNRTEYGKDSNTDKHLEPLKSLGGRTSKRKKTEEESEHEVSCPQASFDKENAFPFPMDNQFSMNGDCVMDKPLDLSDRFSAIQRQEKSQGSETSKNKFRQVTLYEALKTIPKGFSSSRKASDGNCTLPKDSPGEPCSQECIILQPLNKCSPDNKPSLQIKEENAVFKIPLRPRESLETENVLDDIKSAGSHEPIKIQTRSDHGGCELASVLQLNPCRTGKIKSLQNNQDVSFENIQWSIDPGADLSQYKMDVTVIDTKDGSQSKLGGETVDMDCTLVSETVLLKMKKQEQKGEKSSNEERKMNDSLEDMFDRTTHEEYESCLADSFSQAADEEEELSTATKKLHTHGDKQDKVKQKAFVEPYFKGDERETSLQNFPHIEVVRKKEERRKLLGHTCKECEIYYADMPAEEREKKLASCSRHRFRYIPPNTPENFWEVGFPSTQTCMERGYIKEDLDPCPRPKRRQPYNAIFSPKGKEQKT
UniProt Q96I25: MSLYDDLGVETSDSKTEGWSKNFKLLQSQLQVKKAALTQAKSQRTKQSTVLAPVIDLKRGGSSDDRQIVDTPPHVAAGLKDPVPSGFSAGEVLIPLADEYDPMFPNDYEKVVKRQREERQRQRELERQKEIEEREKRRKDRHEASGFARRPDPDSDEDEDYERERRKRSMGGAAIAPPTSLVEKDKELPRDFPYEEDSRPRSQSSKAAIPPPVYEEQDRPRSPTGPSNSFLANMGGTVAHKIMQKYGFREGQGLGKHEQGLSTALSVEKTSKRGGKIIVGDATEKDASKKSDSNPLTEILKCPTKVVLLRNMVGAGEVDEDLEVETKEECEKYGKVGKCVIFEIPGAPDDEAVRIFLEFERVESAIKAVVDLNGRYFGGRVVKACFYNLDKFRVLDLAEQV
UniProt Q9NW64: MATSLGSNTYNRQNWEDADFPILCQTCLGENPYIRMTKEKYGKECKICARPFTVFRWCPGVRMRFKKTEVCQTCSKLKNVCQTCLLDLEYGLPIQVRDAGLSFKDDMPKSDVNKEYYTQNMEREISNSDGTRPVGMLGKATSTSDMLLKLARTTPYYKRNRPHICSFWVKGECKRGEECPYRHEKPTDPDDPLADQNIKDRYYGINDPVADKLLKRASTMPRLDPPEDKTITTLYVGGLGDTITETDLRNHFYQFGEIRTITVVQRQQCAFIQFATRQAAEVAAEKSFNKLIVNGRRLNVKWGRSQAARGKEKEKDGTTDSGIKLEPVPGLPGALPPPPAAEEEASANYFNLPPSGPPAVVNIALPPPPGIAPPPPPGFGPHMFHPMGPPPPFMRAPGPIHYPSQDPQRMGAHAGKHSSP
UniProt P08575: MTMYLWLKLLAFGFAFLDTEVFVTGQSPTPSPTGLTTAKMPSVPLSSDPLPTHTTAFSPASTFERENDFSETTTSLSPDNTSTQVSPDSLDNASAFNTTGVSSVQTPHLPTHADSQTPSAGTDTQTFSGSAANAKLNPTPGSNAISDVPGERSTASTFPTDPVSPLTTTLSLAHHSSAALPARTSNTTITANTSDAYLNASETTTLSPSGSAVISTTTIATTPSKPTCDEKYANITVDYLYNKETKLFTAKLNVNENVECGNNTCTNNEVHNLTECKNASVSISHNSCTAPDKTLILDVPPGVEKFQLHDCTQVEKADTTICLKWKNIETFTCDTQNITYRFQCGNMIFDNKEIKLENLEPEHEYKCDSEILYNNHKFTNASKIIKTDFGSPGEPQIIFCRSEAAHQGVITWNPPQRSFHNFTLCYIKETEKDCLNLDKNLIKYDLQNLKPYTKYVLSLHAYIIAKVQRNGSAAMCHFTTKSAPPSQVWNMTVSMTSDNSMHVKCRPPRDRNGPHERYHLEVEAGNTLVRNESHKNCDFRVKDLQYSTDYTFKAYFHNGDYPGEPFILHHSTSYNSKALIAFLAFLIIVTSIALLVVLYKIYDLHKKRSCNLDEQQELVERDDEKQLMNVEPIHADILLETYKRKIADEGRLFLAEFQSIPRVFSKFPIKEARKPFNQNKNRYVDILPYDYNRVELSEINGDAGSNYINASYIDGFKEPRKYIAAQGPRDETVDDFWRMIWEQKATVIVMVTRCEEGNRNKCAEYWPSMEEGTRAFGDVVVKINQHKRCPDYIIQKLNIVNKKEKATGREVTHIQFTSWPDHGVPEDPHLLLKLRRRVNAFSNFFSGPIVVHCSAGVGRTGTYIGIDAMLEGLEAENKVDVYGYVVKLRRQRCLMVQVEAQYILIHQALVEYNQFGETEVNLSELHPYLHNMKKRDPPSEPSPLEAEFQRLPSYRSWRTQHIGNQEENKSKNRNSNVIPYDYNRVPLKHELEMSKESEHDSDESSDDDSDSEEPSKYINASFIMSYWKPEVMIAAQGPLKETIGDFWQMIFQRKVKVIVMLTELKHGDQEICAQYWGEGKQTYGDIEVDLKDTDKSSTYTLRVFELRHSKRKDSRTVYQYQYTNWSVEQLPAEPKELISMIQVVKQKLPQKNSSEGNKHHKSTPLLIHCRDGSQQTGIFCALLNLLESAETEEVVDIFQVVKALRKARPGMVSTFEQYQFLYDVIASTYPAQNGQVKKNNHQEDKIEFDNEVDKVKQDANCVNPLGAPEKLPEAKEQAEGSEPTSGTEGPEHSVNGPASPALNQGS
UniProt P51149, whole entry: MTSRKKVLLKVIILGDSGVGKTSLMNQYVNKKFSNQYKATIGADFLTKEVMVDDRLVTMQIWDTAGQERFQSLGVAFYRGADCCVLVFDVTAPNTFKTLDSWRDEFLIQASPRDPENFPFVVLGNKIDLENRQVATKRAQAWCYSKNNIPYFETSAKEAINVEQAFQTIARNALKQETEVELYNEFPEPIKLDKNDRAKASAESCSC
UniProt Q6VN20, whole entry: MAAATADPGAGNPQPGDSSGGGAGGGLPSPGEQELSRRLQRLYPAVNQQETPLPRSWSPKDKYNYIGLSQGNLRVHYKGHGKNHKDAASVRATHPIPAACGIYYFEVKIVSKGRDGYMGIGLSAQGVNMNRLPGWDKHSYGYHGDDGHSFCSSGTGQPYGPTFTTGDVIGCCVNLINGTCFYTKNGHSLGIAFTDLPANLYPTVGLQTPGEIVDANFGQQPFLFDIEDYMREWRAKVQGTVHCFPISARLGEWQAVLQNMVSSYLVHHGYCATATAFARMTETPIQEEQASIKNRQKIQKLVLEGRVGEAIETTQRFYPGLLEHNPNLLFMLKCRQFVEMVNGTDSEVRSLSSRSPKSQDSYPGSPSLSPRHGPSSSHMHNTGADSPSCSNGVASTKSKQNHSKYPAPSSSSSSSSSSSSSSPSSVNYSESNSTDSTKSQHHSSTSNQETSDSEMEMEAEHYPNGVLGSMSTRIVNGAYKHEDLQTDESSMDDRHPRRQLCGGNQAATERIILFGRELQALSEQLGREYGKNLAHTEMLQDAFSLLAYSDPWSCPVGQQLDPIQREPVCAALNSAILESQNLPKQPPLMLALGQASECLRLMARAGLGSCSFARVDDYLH
UniProt P54136: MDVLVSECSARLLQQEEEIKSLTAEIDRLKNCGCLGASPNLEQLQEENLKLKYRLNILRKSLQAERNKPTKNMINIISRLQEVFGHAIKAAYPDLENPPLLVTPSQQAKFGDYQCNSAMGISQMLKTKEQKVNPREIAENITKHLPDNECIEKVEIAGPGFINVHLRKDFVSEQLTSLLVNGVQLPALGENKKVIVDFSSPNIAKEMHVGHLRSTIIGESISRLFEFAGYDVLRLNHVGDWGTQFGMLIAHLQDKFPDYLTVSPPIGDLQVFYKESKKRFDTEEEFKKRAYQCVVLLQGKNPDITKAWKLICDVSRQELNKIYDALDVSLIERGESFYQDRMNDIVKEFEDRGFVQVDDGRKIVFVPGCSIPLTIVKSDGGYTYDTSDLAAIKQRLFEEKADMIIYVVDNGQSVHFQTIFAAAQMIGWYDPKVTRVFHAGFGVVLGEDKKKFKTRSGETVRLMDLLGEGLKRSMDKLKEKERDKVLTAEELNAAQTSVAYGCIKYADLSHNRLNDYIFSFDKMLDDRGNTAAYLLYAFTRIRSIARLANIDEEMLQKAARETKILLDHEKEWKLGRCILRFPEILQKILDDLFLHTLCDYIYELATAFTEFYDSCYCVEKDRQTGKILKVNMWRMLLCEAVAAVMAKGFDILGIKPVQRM
UniProt Q96T37: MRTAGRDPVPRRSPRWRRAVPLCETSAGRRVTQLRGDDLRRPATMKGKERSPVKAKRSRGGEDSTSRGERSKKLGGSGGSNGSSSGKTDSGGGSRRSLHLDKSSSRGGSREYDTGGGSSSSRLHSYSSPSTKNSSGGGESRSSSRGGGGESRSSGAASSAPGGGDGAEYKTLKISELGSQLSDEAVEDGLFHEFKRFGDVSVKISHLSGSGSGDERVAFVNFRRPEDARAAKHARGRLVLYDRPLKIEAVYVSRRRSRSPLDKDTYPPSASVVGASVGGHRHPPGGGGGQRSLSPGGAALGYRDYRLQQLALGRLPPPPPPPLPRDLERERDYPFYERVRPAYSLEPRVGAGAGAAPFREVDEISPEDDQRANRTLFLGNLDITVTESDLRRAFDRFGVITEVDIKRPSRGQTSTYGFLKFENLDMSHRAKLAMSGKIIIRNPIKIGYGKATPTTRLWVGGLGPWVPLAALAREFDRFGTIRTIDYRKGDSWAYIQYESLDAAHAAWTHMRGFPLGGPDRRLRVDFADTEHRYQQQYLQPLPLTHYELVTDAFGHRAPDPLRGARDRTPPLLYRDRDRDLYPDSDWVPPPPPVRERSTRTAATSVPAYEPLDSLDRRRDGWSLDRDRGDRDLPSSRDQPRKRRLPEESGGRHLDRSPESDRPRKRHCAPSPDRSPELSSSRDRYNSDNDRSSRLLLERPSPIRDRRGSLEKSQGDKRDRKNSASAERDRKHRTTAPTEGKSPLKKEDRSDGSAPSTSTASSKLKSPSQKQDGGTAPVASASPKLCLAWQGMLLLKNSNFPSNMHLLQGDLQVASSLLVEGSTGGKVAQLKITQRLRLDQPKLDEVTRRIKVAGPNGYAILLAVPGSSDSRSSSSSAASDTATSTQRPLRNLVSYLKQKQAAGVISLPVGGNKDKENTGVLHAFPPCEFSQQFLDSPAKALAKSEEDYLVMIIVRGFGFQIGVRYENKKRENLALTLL
UniProt P25786: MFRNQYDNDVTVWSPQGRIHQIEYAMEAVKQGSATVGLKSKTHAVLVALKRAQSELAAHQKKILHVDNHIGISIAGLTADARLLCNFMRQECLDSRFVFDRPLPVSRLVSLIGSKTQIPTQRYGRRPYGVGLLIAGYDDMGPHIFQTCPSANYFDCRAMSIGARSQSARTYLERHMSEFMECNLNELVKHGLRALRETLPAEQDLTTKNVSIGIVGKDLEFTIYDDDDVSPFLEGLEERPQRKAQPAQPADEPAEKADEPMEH

What follows are targets tested with COc1ccc(Cn2ccc3ccc(C(=O)NO)cc32)cc1 (assay: dose-dependent thermal stabilisation call (2D-TPP, DLPTP, 10% FDR) (binary (1 = stabilised)); higher = stabilised by the compound). Conditions: system: HL-60 intact cells; concentration range 0.04-10 µM.
In the case of RACGAP1 (UniProt Q9H0H5), the “dose-dependent thermal stabilisation call” value is reported as inactive: 0.
For RAB24 (UniProt Q969Q5), the “dose-dependent thermal stabilisation call” value was inactive: 0.
With PSMA5 (UniProt P28066) the “dose-dependent thermal stabilisation call” value was inactive: 0.
In the case of RBBP9 (UniProt O75884), the “dose-dependent thermal stabilisation call” value is reported as inactive: 0.
With PTTG1 (UniProt O95997) the “dose-dependent thermal stabilisation call” value was inactive: 0.
With RAD51 (UniProt Q06609) the “dose-dependent thermal stabilisation call” value was inactive: 0.
PURA (UniProt Q00577) was tested, and the “dose-dependent thermal stabilisation call” value was inactive: 0.
For RBBP8 (UniProt Q99708), the “dose-dependent thermal stabilisation call” value was inactive: 0.
For RASSF5 (UniProt Q8WWW0), the “dose-dependent thermal stabilisation call” value was inactive: 0.
With PTGES3 (UniProt Q15185) the “dose-dependent thermal stabilisation call” value was inactive: 0.
With RBM17 (UniProt Q96I25) the “dose-dependent thermal stabilisation call” value was inactive: 0.
RANGAP1 (UniProt P46060) was tested, and the “dose-dependent thermal stabilisation call” value was inactive: 0.
In the case of PTPN9 (UniProt P43378), the “dose-dependent thermal stabilisation call” value is reported as inactive: 0.
In the case of RBCK1 (UniProt Q9BYM8), the “dose-dependent thermal stabilisation call” value is reported as inactive: 0.
With RBM6 (UniProt P78332) the “dose-dependent thermal stabilisation call” value was inactive: 0.
PSMD8 (UniProt P48556) was tested, and the “dose-dependent thermal stabilisation call” value was inactive: 0.
RABL4 (UniProt Q9BW83) was tested, and the “dose-dependent thermal stabilisation call” value was inactive: 0.
With RABEPK (UniProt Q7Z6M1) the “dose-dependent thermal stabilisation call” value was inactive: 0.
PSIP1 (UniProt O75475) was tested, and the “dose-dependent thermal stabilisation call” value was inactive: 0.
RAD51L3 (UniProt O75771) was tested, and the “dose-dependent thermal stabilisation call” value was inactive: 0.
For RAB12 (UniProt Q6IQ22), the “dose-dependent thermal stabilisation call” value was inactive: 0.
With RBM22 (UniProt Q9NW64) the “dose-dependent thermal stabilisation call” value was inactive: 0.
For PTPN13 (UniProt Q12923), the “dose-dependent thermal stabilisation call” value was inactive: 0.
In the case of RANBP3 (UniProt Q9H6Z4), the “dose-dependent thermal stabilisation call” value is reported as inactive: 0.
For QTRTD1 (UniProt Q9H974), the “dose-dependent thermal stabilisation call” value was inactive: 0.
In the case of PTPRC (UniProt P08575), the “dose-dependent thermal stabilisation call” value is reported as inactive: 0.
With RALBP1 (UniProt Q15311) the “dose-dependent thermal stabilisation call” value was inactive: 0.
With RAB7A (UniProt P51149) the “dose-dependent thermal stabilisation call” value was inactive: 0.
In the case of PSEN1 (UniProt P49768), the “dose-dependent thermal stabilisation call” value is reported as inactive: 0.
PRPF40A (UniProt O75400) was tested, and the “dose-dependent thermal stabilisation call” value was inactive: 0.
RANBP10 (UniProt Q6VN20) was tested, and the “dose-dependent thermal stabilisation call” value was inactive: 0.
With PSMD6 (UniProt Q15008) the “dose-dependent thermal stabilisation call” value was inactive: 0.
For RABGEF1 (UniProt Q9UJ41), the “dose-dependent thermal stabilisation call” value was inactive: 0.
RARS (UniProt P54136) was tested, and the “dose-dependent thermal stabilisation call” value was inactive: 0.
For RBM15 (UniProt Q96T37), the “dose-dependent thermal stabilisation call” value was inactive: 0.
For PTGS1 (UniProt P23219), the “dose-dependent thermal stabilisation call” value was inactive: 0.
For PSMA1 (UniProt P25786), the “dose-dependent thermal stabilisation call” value was inactive: 0.
For PWP1 (UniProt Q13610), the “dose-dependent thermal stabilisation call” value was inactive: 0.
